Test results reported in doi:10.1101/2023.10.24.563886.
Results are given in words; binding and its absence hold for the method and conditions named. In cells and extracts the contact can be indirect. Some entries that bind do so weakly or less than the wild type.

Amino acid sequences for entries named in this document (tags omitted).
UniProt E1AZ71: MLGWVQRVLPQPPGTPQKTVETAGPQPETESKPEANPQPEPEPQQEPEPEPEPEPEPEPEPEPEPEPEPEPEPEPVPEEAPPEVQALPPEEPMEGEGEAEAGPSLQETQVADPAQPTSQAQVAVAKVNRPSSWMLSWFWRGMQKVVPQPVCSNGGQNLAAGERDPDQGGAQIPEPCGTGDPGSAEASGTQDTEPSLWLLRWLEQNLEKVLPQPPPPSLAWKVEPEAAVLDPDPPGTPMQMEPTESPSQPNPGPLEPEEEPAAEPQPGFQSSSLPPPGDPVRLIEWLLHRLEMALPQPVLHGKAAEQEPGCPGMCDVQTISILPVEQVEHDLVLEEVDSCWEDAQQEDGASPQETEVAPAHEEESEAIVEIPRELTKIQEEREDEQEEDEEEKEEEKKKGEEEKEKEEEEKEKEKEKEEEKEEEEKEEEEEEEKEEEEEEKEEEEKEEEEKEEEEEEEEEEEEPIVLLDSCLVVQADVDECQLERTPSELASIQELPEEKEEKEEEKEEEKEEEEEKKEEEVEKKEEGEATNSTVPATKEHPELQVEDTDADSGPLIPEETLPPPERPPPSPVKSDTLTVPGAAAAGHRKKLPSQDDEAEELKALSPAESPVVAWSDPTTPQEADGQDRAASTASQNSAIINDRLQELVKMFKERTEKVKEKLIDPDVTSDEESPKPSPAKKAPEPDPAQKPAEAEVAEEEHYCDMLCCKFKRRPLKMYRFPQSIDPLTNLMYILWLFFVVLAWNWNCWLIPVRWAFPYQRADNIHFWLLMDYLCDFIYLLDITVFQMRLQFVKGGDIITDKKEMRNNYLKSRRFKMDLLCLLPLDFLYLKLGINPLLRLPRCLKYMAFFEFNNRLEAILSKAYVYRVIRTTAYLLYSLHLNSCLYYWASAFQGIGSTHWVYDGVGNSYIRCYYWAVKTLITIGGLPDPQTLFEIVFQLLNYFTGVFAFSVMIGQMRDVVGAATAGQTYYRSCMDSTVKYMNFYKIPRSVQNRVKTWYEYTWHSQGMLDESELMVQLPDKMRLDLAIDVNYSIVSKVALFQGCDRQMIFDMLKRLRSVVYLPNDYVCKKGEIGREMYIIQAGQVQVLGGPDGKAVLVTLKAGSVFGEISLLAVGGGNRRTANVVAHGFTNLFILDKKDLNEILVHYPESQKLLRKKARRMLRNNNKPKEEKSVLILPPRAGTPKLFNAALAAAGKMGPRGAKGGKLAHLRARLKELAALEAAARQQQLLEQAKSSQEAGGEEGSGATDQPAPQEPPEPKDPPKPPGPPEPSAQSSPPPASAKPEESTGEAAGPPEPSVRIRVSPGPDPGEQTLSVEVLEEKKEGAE
UniProt O88704: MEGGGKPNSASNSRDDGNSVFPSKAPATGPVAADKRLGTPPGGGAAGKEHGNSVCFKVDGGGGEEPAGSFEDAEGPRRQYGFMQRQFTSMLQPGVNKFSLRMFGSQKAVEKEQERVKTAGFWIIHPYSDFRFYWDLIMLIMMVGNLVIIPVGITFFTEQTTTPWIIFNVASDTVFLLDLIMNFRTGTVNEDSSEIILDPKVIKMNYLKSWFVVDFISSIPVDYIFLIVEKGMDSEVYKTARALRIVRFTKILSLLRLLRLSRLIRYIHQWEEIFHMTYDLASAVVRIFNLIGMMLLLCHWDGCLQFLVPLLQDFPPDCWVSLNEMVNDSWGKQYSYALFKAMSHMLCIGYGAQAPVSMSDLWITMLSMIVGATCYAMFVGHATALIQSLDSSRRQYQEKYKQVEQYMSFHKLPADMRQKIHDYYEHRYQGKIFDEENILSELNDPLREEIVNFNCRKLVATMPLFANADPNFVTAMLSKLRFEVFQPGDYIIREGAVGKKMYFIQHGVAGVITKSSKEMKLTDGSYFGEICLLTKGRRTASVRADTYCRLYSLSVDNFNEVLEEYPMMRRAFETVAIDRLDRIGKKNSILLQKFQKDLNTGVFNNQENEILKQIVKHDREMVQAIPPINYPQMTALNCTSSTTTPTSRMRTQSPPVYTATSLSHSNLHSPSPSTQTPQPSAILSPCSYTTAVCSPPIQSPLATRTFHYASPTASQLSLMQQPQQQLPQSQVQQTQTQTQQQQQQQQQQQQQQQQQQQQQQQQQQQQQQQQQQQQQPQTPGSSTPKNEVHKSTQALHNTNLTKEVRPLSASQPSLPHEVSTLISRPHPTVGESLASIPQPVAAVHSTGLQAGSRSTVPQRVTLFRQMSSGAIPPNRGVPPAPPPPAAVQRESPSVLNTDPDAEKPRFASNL

T1: LPHN2 (mouse (endogenous in utricle)) (UniProt Q8JZZ7)
T1 sequence: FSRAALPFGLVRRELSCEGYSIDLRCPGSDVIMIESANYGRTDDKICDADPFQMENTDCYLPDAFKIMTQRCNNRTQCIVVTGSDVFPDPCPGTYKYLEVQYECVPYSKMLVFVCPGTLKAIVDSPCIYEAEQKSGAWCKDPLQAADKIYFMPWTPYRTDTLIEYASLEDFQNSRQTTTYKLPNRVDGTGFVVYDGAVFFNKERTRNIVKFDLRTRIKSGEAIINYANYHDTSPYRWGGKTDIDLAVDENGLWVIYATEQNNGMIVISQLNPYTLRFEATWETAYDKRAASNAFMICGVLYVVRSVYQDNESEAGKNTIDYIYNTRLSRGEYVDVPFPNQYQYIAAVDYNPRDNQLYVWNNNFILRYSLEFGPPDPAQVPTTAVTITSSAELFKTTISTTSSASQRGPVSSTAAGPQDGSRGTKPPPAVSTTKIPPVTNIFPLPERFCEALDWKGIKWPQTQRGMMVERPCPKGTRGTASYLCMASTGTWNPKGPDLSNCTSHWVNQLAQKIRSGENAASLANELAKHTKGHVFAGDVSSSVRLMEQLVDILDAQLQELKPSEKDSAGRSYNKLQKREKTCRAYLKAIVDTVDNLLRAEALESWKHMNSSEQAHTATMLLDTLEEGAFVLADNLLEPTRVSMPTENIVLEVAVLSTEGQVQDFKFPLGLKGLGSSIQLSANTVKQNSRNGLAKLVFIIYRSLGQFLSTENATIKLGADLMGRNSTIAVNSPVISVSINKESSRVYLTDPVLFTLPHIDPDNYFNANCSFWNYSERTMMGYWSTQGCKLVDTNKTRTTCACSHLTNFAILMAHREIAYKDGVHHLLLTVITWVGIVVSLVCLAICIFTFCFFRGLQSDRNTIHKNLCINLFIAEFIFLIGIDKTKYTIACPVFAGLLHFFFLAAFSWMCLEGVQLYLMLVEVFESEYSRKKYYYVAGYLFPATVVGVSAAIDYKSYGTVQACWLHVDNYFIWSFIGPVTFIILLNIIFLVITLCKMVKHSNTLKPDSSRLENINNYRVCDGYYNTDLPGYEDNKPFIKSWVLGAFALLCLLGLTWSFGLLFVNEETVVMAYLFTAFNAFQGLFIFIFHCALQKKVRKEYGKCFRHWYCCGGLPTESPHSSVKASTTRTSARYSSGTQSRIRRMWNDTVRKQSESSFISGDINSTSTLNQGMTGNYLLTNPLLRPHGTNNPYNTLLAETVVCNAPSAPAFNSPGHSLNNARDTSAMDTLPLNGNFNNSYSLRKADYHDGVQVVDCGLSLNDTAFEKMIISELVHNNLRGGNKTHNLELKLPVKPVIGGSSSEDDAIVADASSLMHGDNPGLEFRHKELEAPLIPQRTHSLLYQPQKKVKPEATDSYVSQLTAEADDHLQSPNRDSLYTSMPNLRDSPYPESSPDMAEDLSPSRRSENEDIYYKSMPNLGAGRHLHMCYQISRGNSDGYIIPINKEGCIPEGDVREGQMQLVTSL


The molecules below were run against T1, LPHN2 (mouse (endogenous in utricle)) (assay: co-IP).

Row | Molecule | binding
1 | CNGB1 (from UniProt E1AZ71 1-1325) | no binding
2 | HCN1 (from UniProt O88704 1-910) | no binding
3 | CNGA3 (protein, UniProt Q9JJZ8 1-631) MAKVNTQCSQPSPTQLSIKNADRDLDHVENGLGRVSRLIISIRAWASRHLHDEDQTPDSFLDRFHGSELKEVSTRESNAQPNPGEQKPPDGGEGRKEEPIVVDPSSNIYYRWLTAIALPVFYNWCLLVCRACFDELQSEHLTLWLVLDYSADVLYVLDMLVRARTGFLEQGLMVRDTKRLWKHYTKTLHFKLDILSLIPTDLAYLKLGVNYPELRFNRLLKFSRLFEFFDRTETRTNYPNVFRIGNLVLYTLIIIHWNACIYFAISKFIGFGTDSWVYPNTSKPEYARLSRKYIYSLYWSTLTLTTIGETPPPVKDEEYLFVVIDFLVGILIFATIVGNVGSMISNMNAPRVEFQAKIDSVKQYMQFRKVTKDLETRVIRWFDYLWANRKTVDEKEVLKNLPDKLKAEIAINVHLDTLKKVRIFQDCEAGLLVELVLKLRPTVFSPGDYICKKGDIGREMYIIKEGKLAVVADDGVTQFVVLSDGSYFGEISILNIKGSKSGNRRTANIRSIGYSDLFCLSKDDLMEALTEYPDAKRALEEKGRQILMKDNLIDEDLVAARVDTRDVEEKVEYLESSLDILQTRFARLLAEYSASQMKLKQRLTRLESQMNRRCCGFSPDRENSEDASKTD | binds
4 | CNGA1 (protein, UniProt P29974 1-684) MKTNIINTWHSFVNIPNVIVPAIEKEIRRMENGACSSFSDDDNGSLSEESENEDSFFRSNSYKRRGPSQREQHLPGTMALFNVNNSSNKDQEPKEKKKKKKEKKSKADDKNENKKDPEKKKKKEKEKEKKKKEEKTKEKKEEEKKEVVVIDPSGNTYYNWLFCITLPVMYNWTMIIARACFDELQSDYLEYWLIFDYVSDVVYLADMFVRTRTGYLEQGLLVKDRMKLIEKYKANLQFKLDVLSVIPTDLLYIKFGWNYPEIRLNRLLRISRMFEFFQRTETRTNYPNIFRISNLVMYIVIIIHWNACVYYSISKAIGFGNDTWVYPDVNDPEFGRLARKYVYSLYWSTLTLTTIGETPPPVLDSEYIFVVVDFLIGVLIFATIVGNIGSMISNMNAARAEFQSRVDAIKQYMNFRNVSKDMEKRVIKWFDYLWTNKKTVDEREVLRYLPDKLRAEIAINVHLDTLKKVRIFADCEAGLLVELVLKLQPQVYSPGDYICKKGDIGREMYIIKEGKLAVVADDGITQFVVLSDGSYFGEISILNIKGSKAGNRRTANIKSIGYSDLFCLSKDDLMEALTEYPDAKTMLEEKGRQILMKDGLLDINIANMGSDPKDLEEKVTRMEGSVDLLQTRFARILAEYESMQQKLKQRLTKVEKFLKPLIETEFSALEEPGGESELTESLQD | no binding
5 | HCN4 (protein, UniProt O70507 1-1201) MDKLPPSMRKRLYSLPQQVGAKAWIMDEEEDGEEEGAGGRQDPSRRSIRLRPLPSPSPSVAAGCSESRGAALGATESEGPGRSAGKSSTNGDCRRFRGSLASLGSRGGGSGGAGGGSSLGHLHDSAEERRLIAAEGDASPGEDRTPPGLATEPERPATAAQPAASPPPQQPPQPASASCEQPSADTAIKVEGGAAASDQILPEAEVRLGQSGFMQRQFGAMLQPGVNKFSLRMFGSQKAVEREQERVKSAGFWIIHPYSDFRFYWDLTMLLLMVGNLIIIPVGITFFKDENTTPWIVFNVVSDTFFLIDLVLNFRTGIVVEDNTEIILDPQRIKMKYLKSWFVVDFISSIPVDYIFLIVETRIDSEVYKTARALRIVRFTKILSLLRLLRLSRLIRYIHQWEEIFHMTYDLASAVVRIVNLIGMMLLLCHWDGCLQFLVPMLQDFPHDCWVSINGMVNNSWGKQYSYALFKAMSHMLCIGYGRQAPVGMSDVWLTMLSMIVGATCYAMFIGHATALIQSLDSSRRQYQEKYKQVEQYMSFHKLPPDTRQRIHDYYEHRYQGKMFDEESILGELSEPLREEIINFNCRKLVASMPLFANADPNFVTSMLTKLRFEVFQPGDYIIREGTIGKKMYFIQHGVVSVLTKGNKETKLADGSYFGEICLLTRGRRTASVRADTYCRLYSLSVDNFNEVLEEYPMMRRAFETVALDRLDRIGKKNSILLHKVQHDLNSGVFNYQENEIIQQIVRHDREMAHCAHRVQAAASATPTPTPVIWTPLIQAPLQAAAATTSVAIALTHHPRLPAAIFRPPPGPGLGNLGAGQTPRHPRRLQSLIPSALGSASPASSPSQVDTPSSSSFHIQQLAGFSAPPGLSPLLPSSSSSPPPGACGSPPAPTPSTSTAAAASTTGFGHFHKALGGSLSSSDSPLLTPLQPGARSPQAAQPPPPLPGARGGLGLLEHFLPPPPSSRSPSSSPGQLGQPPGELSLGLAAGPSSTPETPPRPERPSFMAGASGGASPVAFTPRGGLSPPGHSPGPPRTFPSAPPRASGSHGSLLLPPASSPPPPQVPQRRGTPPLTPGRLTQDLKLISASQPALPQDGAQTLRRASPHSSGESVAAFSLYPRAGGGSGSSGGLGPPGRPYGAIPGQHVTLPRKTSSGSLPPPLSLFGARAASSGGPPLTTAAPQREPGARSEPVRSKLPSNL | no binding
